{"sequences": {"note": "Chains of the proteins cited; added tags and fusions are not shown.", "UniProt Q99816": "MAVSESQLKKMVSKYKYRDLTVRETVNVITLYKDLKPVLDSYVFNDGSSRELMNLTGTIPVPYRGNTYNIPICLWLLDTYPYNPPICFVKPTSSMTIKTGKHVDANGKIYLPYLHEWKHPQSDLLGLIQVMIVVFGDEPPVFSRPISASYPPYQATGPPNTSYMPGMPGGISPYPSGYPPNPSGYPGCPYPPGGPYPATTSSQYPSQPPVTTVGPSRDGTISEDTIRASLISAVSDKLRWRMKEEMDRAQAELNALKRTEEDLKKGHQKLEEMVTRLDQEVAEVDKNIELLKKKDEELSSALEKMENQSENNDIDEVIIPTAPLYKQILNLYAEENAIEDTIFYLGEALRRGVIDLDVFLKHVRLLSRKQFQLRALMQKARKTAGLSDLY"}, "source": "paper PMC6706427", "target": "Flag-CLIC4 (dog)", "assay": "co-IP; lysates of co-transfected 293T cells in RIPA buffer plus 0.5% CHAPS; anti-Flag or control antibody; Protein-G Dynabeads; 4 °C overnight; 4 washes; blots quantified with the Odyssey system, three independent repeats", "note": "Results are given in words; binding and its absence hold for the method and conditions named. Binding seen in cells or lysates may run through a third protein. A result given as binding can be weak or reduced; the word gives no strength."}
{"substance": "mCherry-Tsg101 (from UniProt Q99816 1-390)", "values": [{"measurement": "binding", "result": "binds"}]}
